The results in this text go back to PubChem BioAssay AID2685 (National Center for Advancing Translational Sciences (NCATS), 2010).

This is one part of the list. These are further read-outs of the screen, such as a control signal, another cell line or another target. No call is given for them. Most of these compounds were active or inconclusive in the main read-out, so they are no random draw. Words in brackets tell the shape of the fitted curve; partial curves, single points and poor fits give uncertain potencies.

This test is described as follows: qHTS Assay for Lipid Storage Modulators in Drosophila S3 Cells.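 On cell number change: cells counted by Cell Tracker Red CMTPX staining in the red channel.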 The note with it: BODIPY lipid droplet fluorescence, 18-24 h; for cell number change: measured here: cell count max response, cells fed with added oleic acid. The essentials: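 Drosophila S3 cells got compounds at several concentrations plus oleic acid (400 uM solution). Laser-scanning cytometry with 488 nm excitation read lipid droplets at 500-530 nm and cells at 575-640 nm. Percent activity was relative to 20 uM Triacsin C.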
(In general: In qHTS, concentration-response curves come from the screen itself.)

[1] abbreviates: measured here: lipid fluorescence (Fed channel) AC50, cells fed with added oleic acid.
The mark [2] stands for this setting: measured here: cell number channel AC50, cells fed with added oleic acid.

As a reminder, the AC50 is the midpoint of the concentration-response curve, whichever way the signal moves. A high value points to activity only at high concentration. As to `O=C(COc1ccc(Cl)cc1Cl)N1CCNC1=O`, the cell number change is 12.7%. In addition, under setting [1], the AC50 is 1.64 µM [rising, partial curve, poor fit].

Consider `CCn1c(SCC(=O)N2CCCC(C)C2)nnc1-c1ccc(S(=O)(=O)N2CCN(C)CC2)cc1` (stereo unspecified), for which the cell number change came to 12%.

`CCN1CCN(c2ccc(S(=O)(=O)N3CCCCC3)cc2NC(=O)C(C)Oc2ccc(F)cc2)CC1` (stereo unspecified): the AC50 under setting [2] is 3.66 µM [rising, single point].

On to `COc1ccccc1-c1nnc(SCC(=O)NC2CCS(=O)(=O)C2)n1N` (stereo unspecified), for which the cell number change is -19.4%. For the same compound, the AC50 under setting [1] was 0.00517 µM [falling, full curve, poor fit].

Consider `O=C(O)c1ccc(Nc2c3ccccc3nc3ccccc23)cc1`, for which the cell number change stood at 34.7%.

For `Clc1ccc(-c2nnc(-c3ccccc3)c(N3CCSCC3)n2)cc1`, the cell number change is -20.5%.

In the case of `CC1=CC(C)(C)N(C(=O)CSc2nnc(-c3ccc(C)cc3)o2)c2ccc(C)cc21`, the cell number change is -31.2%. For the same compound, the AC50 under setting [2] was 32.6 µM [falling, single point]. The AC50 under setting [1] is 29.1 µM [rising, single point].

For the compound `O=C1CC(N2CCOCC2)=NN1c1ccc([N+](=O)[O-])cc1`, the cell number change was -19.1%. The AC50 under setting [1] is 0.00517 µM [falling, full curve, poor fit].

`COc1ccc(NC(=O)[C@H](C)NC(=O)C2CCN(S(=O)(=O)c3ccc(C)cc3)CC2)cc1`: the cell number change was -8.96%.

In the case of `Cc1ccc(OCC(=O)NNC(=O)c2ccoc2C)c(Br)c1`, the cell number change came out at 450%. The AC50 under setting [2] was 0.517 µM [rising, single point].

For the compound `Cc1ccc(C)c(S(=O)(=O)NCCCn2ccnc2)c1`, the cell number change worked out at 12.1%. Also, under setting [1], the AC50 is 1.16 µM [rising, partial curve].

On to `O=C(NCc1ccc2c(c1)OCO2)Nc1cccc2ccccc12`, for which the cell number change turned out to be 11.8%. Also, the AC50 under setting [1] is 29.1 µM [rising, single point].

Consider `C=C(c1ccc(OC)cc1)c1ccc(OC)cc1`, for which the cell number change stood at 10.9%. Under setting [1], the AC50 is 0.82 µM [falling, single point].

Turning to `CCC1=Nc2cc(C(=O)NCCN3CCOCC3)ccc2Sc2ccccc21`, the cell number change stood at 19.5%. Under setting [1], the AC50 was 29.1 µM [falling, single point].

With `Cc1noc(C)c1CSCC(=O)Nc1nc2c(F)cc(F)cc2s1`, the cell number change was -6.22%. Besides, the AC50 under setting [2] is 0.461 µM [rising, partial curve, poor fit]. Further, the AC50 under setting [1] was 0.92 µM [rising, partial curve].

In the case of `COc1cc2c(cc1OC)C1O[C@](c3ccsc3)(C2)OC2=C1C(=O)OC1(CCCCC1)C2`, the cell number change was determined as 14%. The AC50 under setting [1] is 5.31 µM [rising, single point].

With `CCOC(=O)CSc1c(-c2ccc(Cl)cc2)[nH]c2ccccc12`, the cell number change is -45.8%. Also, under setting [1], the AC50 was 2.06 µM [rising, partial curve, poor fit].
